Data reported in patent US12414996B2, “Organic anion transporting peptide-based cancer imaging and therapy” (Da Zen Theranostics, Inc., priority 2014, dated 2025).

Test system: MCF-7
Experiment: Tumor cell growth inhibition IC50, MCF-7
Type: cell-based
Details: Breast Cancer cell line MCF-7; read-out: Half maximal inhibitory concentration (IC50) MCF-7
Excerpt: In addition to DZ-1-Gem, some agents of the invention may include other antitumor active moieties, such as cisplatin. For example, the tumor cell growth inhibition activities of DZ-1 linked with cisplatin (“DZ-1-cisplatin”) were compared with those of cisplatin alone in various tumor cells, including prostate, breast, renal, kidney, and lung cancer cell lines.

## N.N.[Cl][Pt][Cl] [Cisplatin, reference compound]
  IC50: 15 µM
